Results as given in PMC6959991.

Target: C-terminally V5-tagged US10 (HEK293T) (human cytomegalovirus, strain Merlin)
Test: co-IP

B1: C-terminally HA-tagged LRFN3 (protein, UniProt Q9BTN0 17-628)
chain: SSPPQSATPSPCPRRCRCQTQSLPLSVLCPGAGLLFVPPSLDRRAAELRLADNFIASVRRRDLANMTGLLHLSLSRNTIRHVAAGAFADLRALRALHLDGNRLTSLGEGQLRGLVNLRHLILSNNQLAALAAGALDDCAETLEDLDLSYNNLEQLPWEALGRLGNVNTLGLDHNLLASVPAGAFSRLHKLARLDMTSNRLTTIPPDPLFSRLPLLARPRGSPASALVLAFGGNPLHCNCELVWLRRLAREDDLEACASPPALGGRYFWAVGEEEFVCEPPVVTHRSPPLAVPAGRPAALRCRAVGDPEPRVRWVSPQGRLLGNSSRARAFPNGTLELLVTEPGDGGIFTCIAANAAGEATAAVELTVGPPPPPQLANSTSCDPPRDGDPDALTPPSAASASAKVADTGPPTDRGVQVTEHGATAALVQWPDQRPIPGIRMYQIQYNSSADDILVYRMIPAESRSFLLTDLASGRTYDLCVLAVYEDSATGLTATRPVGCARFSTEPALRPCGAPHAPFLGGTMIIALGGVIVASVLVFIFVLLMRYKVHGGQPPGKAKIPAPVSSVCSQTNGALGPTPTPAPPAPEPAALRAHTVVQLDCEPWGPGHEPVGP
binding: binds

Results are given in words; binding and its absence hold for the method and conditions named. In cells and extracts the contact can be indirect. Binding calls can cover weak binding; strength is not graded here. Tags and fused reporters may be left off the sequences shown.
